# Experimental data reported in the supplement of paper PMC10338343.
# ± gives the standard deviation. Some of the results follow. The uncertainty is large for many entries.
# System: EfPiwi piRISC loaded with L1MC piRNA (26 nt)
# Assay: pre-steady-state target cleavage rate (min^-1); guide: L1MC piRNA 5'p-UAACUAAAUACUAUGCAAGCUGUAGG; MIWI and MILI are mouse PIWI proteins and EfPiwi is from a freshwater sponge; tags in brackets are library labels; higher = faster piRNA-guided slicing of the target
# Conditions: auxiliary factor: 500 nM Ephydatia muelleri Gtsf1
# In short: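 In HEPES–potassium acetate buffer at 33 °C, […] transcribed, DNA-blocked target RNA library was mixed with 1 nM active affinity-purified piRISC carrying one synthetic guide, with or without 500 nM GTSF1 partner protein, for 0–8 or 0–960 min. Uncleaved targets were sequenced and normalised to depth and to weakly complementary targets; three trials were pooled and k3 was capped at 0.0001 min^-1. The pre-steady-state cleavage rate followed from a burst-and-steady-state fit.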
row,Sequence,pre-steady-state target cleavage rate
1,UCCUGGAUGAGCUUCCAAAGUAUUUAGUUA,0.00193 ± 0.0022
2,UCCUGGAUGUCCUUGCAUAGUAUUCUAGUUA,0.00157 ± 0.0034
3,UCCUCCUACAGCUUGCUUAGUAUUUAGAAA,0.00569 ± 0.0027
4,UCCUGGAUGUGCAACCAUAGUAUUUAGAAA,0.000237 ± 0.013
5,UCCUGGAUGUCGUUGCUUAGUAUUUUGUUA,0.000281 ± 0.012
6,UCCUGGAUGUCGAACCAUAGUAUUUAGGUA,< 0.0001
7,UCCUGGUACAGCAUCCAUAGUAUUUAGUUA,0.0017 ± 0.0028
8,UCCUCCUACAGCUUGCAUAGUAUUUUCUAA,0.00565 ± 0.0036
9,UCCUGGAACAGCUUGCAUUCAAUUUAGUUA,0.000348 ± 0.0077
10,UCCUGGAUGUCGAAGCAUAGUAUUAGUUA,0.000213 ± 0.01
11,UCCUCCUACAGCUUGCAAUGUAUUUUCAAA,0.0017 ± 0.0056
12,UCCUGGAUGUCGUAGCAUAGUAUUAAGUUA,0.000901 ± 0.0053
13,UCCUGGAUGUCGAACGAUACAAUUUAGUUA,0.000262 ± 0.024
14,UCCUGGAUGUCGAUGCAUAGUAUUUUGUAA,0.000289 ± 0.0094
15,UCCUGGAUGUCCUUGCAAAGUAUAUAGUUA,0.000387 ± 0.01
16,UCCUGGAUGUCGUUGCAUAGUAUUUAGUAA,0.000508 ± 0.013
17,UCCUGGAUCAGCUUGCAUAGAUAUUAGUAA,0.000324 ± 0.013
18,UCCUGCUACUCGUUGCAUAGUAUUUUCAAA,0.00174 ± 0.0045
19,UCCUGGAACAGGAAGCAUAGUAUUUAGUAA,0.00114 ± 0.0045

# Reprinted at random: two entries already listed.
row,Sequence,pre-steady-state target cleavage rate
6,UCCUGGAUGUCGAACCAUAGUAUUUAGGUA,< 0.0001
19,UCCUGGAACAGGAAGCAUAGUAUUUAGUAA,0.00114 ± 0.0045

# Following part:

row,Sequence,pre-steady-state target cleavage rate
1,UCCUGGUACAGCUACCAUAGUAUUUAGAAA,0.000915 ± 0.0058
2,UCCUGGUACAGCUUCGAUAGUAUUUAGUAA,0.000882 ± 0.0065
3,UCCUGGAUGUCGAUGCAUAGUAAAAUCAAA [g9:g17:cont:t1A],0.000176 ± 0.02
4,UCCUGGAUGUCGUCUGCAUAGUAUUUAGUUA,0.00907 ± 0.0032
5,UCCUGGAUGUCCUUGCAUACUAAUUAGUUA,0.00235 ± 0.0046
6,UCCUGGAUGUCGAUCCAUAGUAUUAAGUUA,0.000447 ± 0.01
7,UCCUGGAUGUCGAUGCAUACAUUUUAGUUA,0.00011 ± 0.029
8,UCCUGGAUCAGCAAGCAUAGUAUUUAGUAA,0.00238 ± 0.0036
9,UCCUGGAUGUCGAUGCAUAGUUUUUACUUA,0.000209 ± 0.014
10,UCCUGGAUGAGGUUGCAUAGUAUAUAGUUA,0.00167 ± 0.0043
11,UCCUGGAUGUCCUUGCAAAGUAUUAAGUUA,0.000341 ± 0.0084
12,UCCUGGAUGUCGAACCAUAGUAUAAAGUUA,0.000252 ± 0.023
13,UCCUGGUACAGCAACCAUAGUAUUUAGAAA,0.000654 ± 0.0072
14,UCCUGGAUCAGCAUGCAUAGUAUUUUCAAA,0.000663 ± 0.0057
15,UCCUGGAUGUCGUUGCAUAGUAUUUAGUUC [g2:g18:cont:t1C],0.00372 ± 0.0037
16,UCCUGGAACAGCAACCAUAGUAUUUUCAAA,0.000168 ± 0.018
17,UCCUGGAUGUCCUUGCAUACUAUUUACUUA,0.000227 ± 0.011
18,UCCUGGAUGUCGUUGCAUAGUAUUUUGAUA,0.000335 ± 0.011
